Data reported in patent US20110166144A1, “Pyrimidotriazinediones and Pyrimidopyrimidinediones and Methods of Using the Same” (THE REGENTS OF THE UNIVERSITY OF MICHIGAN, priority 2008, published 2011).

These molecules were tested on β-catenin/TCF complex. Details: ratio of WST-1 LD50 to reporter IC50 in IEC18 cells.
Assay type: cell-based

| Compound | LD50/IC50 |
| --- | --- |
| Cn1c(=O)nc2n(CCO)nc(-c3ccccn3)nc-2c1=O [Compound 8j, 1-(2-Hydroxyethyl)-6-methyl-3-(pyridin-2-yl)pyrimido[5,4-e]-[1,2,4]triazine-5,7(1H,6H)-dione] | 2.51 |
| Cn1nc(-c2ccccc2)nc2c(=O)n(C)c(=O)nc1-2 [Compound 5d, 1,6-Dimethyl-3-phenylpyrimido[5,4-e][1,2,4]triazine-5,7(1H,6H)-dione] | 2.62 |
| Cn1nc(-c2ccc(F)cc2)nc2c(=O)n(C)c(=O)nc1-2 [Compound 5f, 3-(4-Fluorophenyl)-1,6-dimethylpyrimido[5,4-e][1,2,4]triazine-5,7(1H,6H)-dione] | 3.67 |
| CCN(CC)CCOc1ccc(-c2nnc3c(n2)c(=O)n(C)c(=O)n3Cc2ccc(F)c(F)c2)cc1 [Compound 10g, 3-(4-(2-(Diethylamino)ethoxy)phenyl)-8-(3,4-difluorobenzyl)-6-methylpyrimido[5,4-e][1,2,4]triazine-5,7(6H,8H)-dione] | 3.67 |
| Cc1ccc(-c2n[nH]c3nc(=O)n(C)c(=O)c-3n2)cc1 [Compound 6a, 6-Methyl-3-p-tolylpyrimido[5,4-e][1,2,4]triazine-5,7(1H,6H)-dione] | >2.37 |
| Cn1nc(-c2ccc(Cl)cc2)[n+]([O-])c2c(=O)n(C)c(=O)nc1-2 | 2.87 |
| CCN(CC)CCOc1ccc(-c2nnc3c(n2)c(=O)n(C)c(=O)n3Cc2cccc(F)c2)cc1 [Compound 10c, 3-(4-(2-(Diethylamino)ethoxy)phenyl)-8-(3-fluorobenzyl)-6-methylpyrimido[5,4-e][1,2,4]triazine-5,7(6H,8H)-dione] | 0.92 |
| Cn1c(=O)c2nc(-c3ccccc3F)nnc2n(Cc2ccccc2)c1=O [Compound 7d, 8-Benzyl-3-(2-fluorophenyl)-6-methylpyrimido[5,4-e][1,2,4]triazine-5,7(6H,8H)-dione] | >13.59 |
| Cn1c(=O)nc2n(CCO)nc(-c3ccc(Cl)cc3)nc-2c1=O [Compound 8c, 3-(4-Chlorophenyl)-1-(2-hydroxyethyl)-6-methylpyrimido[5,4-e][1,2,4]triazine-5,7(1H,6H)-dione] | 1.39 |
| Cc1nc2c(=O)n(C)c(=O)nc-2n(C)n1 [Compound 5b, 1,3,6-Trimethylpyrimido[5,4-e][1,2,4]triazine-5,7(1H,6H)-dione] | 2.02 |
| CCN(CC)CCOc1ccc(-c2nc3c(=O)n(C)c(=O)nc-3n(C)n2)cc1 [Compound 5l, 3-(4-(2-(Diethylamino)ethoxy)phenyl)-1,6-dimethylpyrimido[5,4-e][1,2,4]triazine-5,7(1H,6H)-dione] | 8.32 |
| Cn1c(=O)nc2n(CCO)nc(-c3ccccc3)nc-2c1=O [Compound 8a, 1-(2-Hydroxyethyl)-6-methyl-3-phenylpyrimido[5,4-e][1,2,4]triazine-5,7(1H,6H)-dione] | 2.16 |
| Cc1ccc(-c2nc3c(=O)n(C)c(=O)nc-3n(CCO)n2)cc1 [Compound 8b, 1-(2-Hydroxyethyl)-6-methyl-3-(4-methylphenyl)pyrimido[5,4-e][1,2,4]triazine-5,7(1H,6H)-dione] | 7.94 |
| Cn1c(=O)nc2n(CCO)nc(-c3ccc(OCCN4CCCC4)cc3)nc-2c1=O [Compound 8f, 1-(2-Hydroxyethyl)-6-methyl-3-(4-(2-(pyrrolidin-1-yl)ethoxy)phenyl)pyrimido[5,4-e][1,2,4]triazine-5,7(1H,6H)-dione] | 1.16 |
| Cn1nc(-c2cccc(Cl)c2)nc2c(=O)n(C)c(=O)nc1-2 [Compound 5i, 3-(3-Chlorophenyl)-1,6-dimethylpyrimido[5,4-e][1,2,4]triazine-5,7(1H,6H)-dione] | 4.75 |
| Cn1nc(-c2ccccc2F)nc2c(=O)n(C)c(=O)nc1-2 [Compound 5g, 3-(2-Fluorophenyl)-1,6-dimethylpyrimido[5,4-e][1,2,4]triazine-5,7(1H,6H)-dione] | 3.64 |
| Cn1nc(-c2ccc(Cl)cc2)nc2c(=O)n(C)c(=O)nc1-2 [Compound 5h, 3-(4-Chlorophenyl)-1,6-dimethylpyrimido[5,4-e][1,2,4]triazine-5,7(1H,6H)-dione] | 2.70 |
| Cn1c(=O)c2nc(-c3ccc(F)cc3)nnc2n(Cc2ccc(C(C)(C)C)cc2)c1=O [Compound 7h, 8-(4-tert-Butylbenzyl)-3-(4-fluorophenyl)-6-methylpyrimido[5,4-e][1,2,4]triazine-5,7(6H,8H)-dione] | >909 |
| CCc1nc2c(=O)n(C)c(=O)nc-2n(C)n1 [Compound 5c, 3-Ethyl-1,6-dimethylpyrimido[5,4-e][1,2,4]triazine-5,7(1H,6H)-dione] | 2.07 |
| Cc1ccc(-c2nc3c(=O)n(C)c(=O)nc-3n(C)n2)cc1 [Compound 5e, 1,6-Dimethyl-3-(4-methylphenyl)pyrimido[5,4-e][1,2,4]triazine-5,7(1H,6H)-dione] | 1.23 |
| COc1ccc(-c2nc3c(=O)n(C)c(=O)nc-3n(CCO)n2)cc1 [Compound 8e, 1-(2-Hydroxyethyl)-3-(4-methoxyphenyl)-6-methylpyrimido[5,4-e][1,2,4]triazine-5,7(1H,6H)-5,7-dione] | 1.38 |
| Cn1nc(-c2ccccc2)[n+]([O-])c2c(=O)n(C)c(=O)nc1-2 | 3.49 |
| Cn1nc(-c2ccccc2F)nc2c(=O)n(Cc3ccc(F)c(F)c3)c(=O)nc1-2 [Compound 17e, 6-(3,4-Difluorobenzyl)-3-(2-fluorophenyl)-1-methylpyrimido[5,4-e][1,2,4]triazine-5,7(1H,6H)-dione] | 4.36 |
